Data on one molecule can be found in publication PMC7460216 (Marine Drugs, 2020).

The subject of the data set is panel of human tumour cell lines (NCI 60 cell-line panel). Conditions: preliminary single dose (10 μM) testing. The text has this:
Protocols of testing at the DTP, NCI have been described elsewhere.

Take `CCCCCNC1[C@@H]2[N+]3=C4C5=C(NCC[C@@]51[C@@H](O)[C@@H](Br)C2(O)O)C(=O)c1[nH]cc(c14)CC3` (some centres unmarked) [Compound 6, Aminopentane Discorhabdin C Dihydrate Adduct]: the “delta of mean growth” value was determined as 33.70 and the range of growth is 63.59.
